From patent publication US20040014151A1 (published 2004)

By UniProt entry, the sequences of proteins in these tests, tags left out. Residues count along the entry.
UniProt P07120, residues 2-173: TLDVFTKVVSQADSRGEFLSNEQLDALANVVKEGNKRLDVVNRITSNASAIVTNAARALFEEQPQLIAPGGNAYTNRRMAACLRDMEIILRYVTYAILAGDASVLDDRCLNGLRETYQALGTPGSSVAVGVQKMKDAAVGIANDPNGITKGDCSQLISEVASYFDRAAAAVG
UniProt P07121: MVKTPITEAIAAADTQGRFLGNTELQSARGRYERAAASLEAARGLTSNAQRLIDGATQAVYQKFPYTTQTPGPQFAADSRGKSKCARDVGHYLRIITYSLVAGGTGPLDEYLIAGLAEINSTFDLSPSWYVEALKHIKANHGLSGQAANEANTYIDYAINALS

Target: native C-phycocyanin β subunit (holo-β) (Anabaena sp. PCC7120) (UniProt P07120)
Assay: IMAC copurification from cpcF mutant; SDS-PAGE, mass spectrometry

apo-HTα (His-tagged C-phycocyanin α subunit without bilin) (from UniProt P07121 1-163)
binding: binds

No constants are given. Whether binding was seen depends on the method and setting. Binding seen in cells or lysates may run through a third protein. A yes stands for co-enrichment or nearness to the bait. Other partners may have been found.
